Data as given in PubChem BioAssay AID743121 (NCATS, 2013)
This is one part, drawn at random, of about 26,000 deposited reagents. Of all reagents, 167 (0.63%) were called active. 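Calls are per gene from RSA p-values that are not deposited; an individual active-marked siRNA can sensitise only weakly.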 Reagents against one gene are numbered here. Further read-outs or replicates are left out here.

Purpose: 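Knock-downs that sensitise breast cancer cells to camptothecin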 (primary screen)
System: MDA-MB-231 cells, a human breast cancer line
Knock-down reagent: single siRNA against human genes, 20 nM siRNA (0.8 pmol per well)
Time to read-out: 120 h (drug added 48 h after transfection, read 72 h later)
Conditions: camptothecin 20 nM (about EC30) for 72 h; vehicle 0.1% DMSO in parallel plates
Measured: 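CellTiter-Glo ATP signal, scaled to control siRNA as percent viability; sensitisation given as log2 of untreated divided by camptothecin-treated viability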
Direction: log2 vehicle/camptothecin viability: higher = stronger sensitisation to camptothecin; viability with camptothecin: higher = more viable cells
Active means: 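Each gene scored by redundant siRNA activity (RSA) over its individual siRNA ratios; a gene is called active at p < 0.001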

| target | reagent no. | log2 vehicle/camptothecin viability | viability with camptothecin (% of control) | activity call |
| --- | --- | --- | --- | --- |
| ING5 | 1 | -0.0377 | 101 | inactive |
| ING5 | 2 | 1.01 | 30.8 | inactive |
| ING5 | 3 | -0.564 | 74 | inactive |
| TNFAIP1 | 1 | -0.667 | 88.2 | inactive |
| TNFAIP1 | 2 | -0.083 | 72.8 | inactive |
| TNFAIP1 | 3 | -0.339 | 106 | inactive |
| TNFAIP1 | 4 | -0.177 | 80.2 | inactive |
| FBP2 | 1 | -0.216 | 114 | inactive |
| FBP2 | 2 | -0.698 | 78.7 | inactive |
| FBP2 | 3 | -0.244 | 120 | inactive |
| FBP2 | 4 | -0.0885 | 73.3 | inactive |
| DUSP13B | 1 | -0.18 | 78.9 | inactive |
| DUSP13B | 2 | -0.533 | 64.2 | inactive |
| DUSP13B | 3 | -0.195 | 66.1 | inactive |
| DUSP13B | 4 | -0.423 | 48.6 | inactive |
| TGIF1 | 1 | -0.101 | 99.9 | inactive |
| TGIF1 | 2 | -0.172 | 65.3 | inactive |
| TGIF1 | 3 | -0.72 | 71.4 | inactive |
| TAAR1 | 1 | -0.115 | 78.2 | inactive |
| TAAR1 | 2 | -0.527 | 108 | inactive |
| TAAR1 | 3 | -0.156 | 112 | inactive |
| TAAR1 | 4 | 0.0651 | 116 | inactive |

5 entries from above, set out differently:
{"target": "ING5", "reagent no.": 2, "log2 vehicle/camptothecin viability": 1.01, "viability with camptothecin (% of control)": 30.8, "activity call": "inactive"}
{"target": "ING5", "reagent no.": 3, "log2 vehicle/camptothecin viability": -0.564, "viability with camptothecin (% of control)": 74, "activity call": "inactive"}
{"target": "TNFAIP1", "reagent no.": 1, "log2 vehicle/camptothecin viability": -0.667, "viability with camptothecin (% of control)": 88.2, "activity call": "inactive"}
{"target": "TNFAIP1", "reagent no.": 2, "log2 vehicle/camptothecin viability": -0.083, "viability with camptothecin (% of control)": 72.8, "activity call": "inactive"}
{"target": "TNFAIP1", "reagent no.": 3, "log2 vehicle/camptothecin viability": -0.339, "viability with camptothecin (% of control)": 106, "activity call": "inactive"}

The list goes on.
| target | reagent no. | log2 vehicle/camptothecin viability | viability with camptothecin (% of control) | activity call |
| --- | --- | --- | --- | --- |
| TIA1 | 1 | 0.167 | 67.2 | inactive |
| TIA1 | 2 | -0.0885 | 124 | inactive |
| TIA1 | 3 | -0.542 | 78 | inactive |
| GLRA2 | 1 | -0.157 | 101 | inactive |
| GLRA2 | 2 | -0.232 | 95.2 | inactive |
| GLRA2 | 3 | -0.155 | 113 | inactive |
| GLRA2 | 4 | -0.135 | 77.7 | inactive |
| AP2B1 | 1 | -0.593 | 58.5 | inactive |
| AP2B1 | 2 | -0.284 | 54.5 | inactive |
| AP2B1 | 3 | -0.359 | 91.3 | inactive |
| AP2B1 | 4 | -0.00932 | 101 | inactive |
| TPTE | 1 | -0.302 | 115 | inactive |
| TPTE | 2 | -0.0778 | 43.7 | inactive |
| TPTE | 3 | -0.115 | 93.6 | inactive |
| TPTE | 4 | -0.335 | 118 | inactive |
| SARM1 | 1 | -0.214 | 111 | inactive |
| SARM1 | 2 | 0.851 | 56 | inactive |
| SARM1 | 3 | -0.114 | 80.2 | inactive |
| SARM1 | 4 | -0.132 | 118 | inactive |
| CYB5R4 | 1 | -0.44 | 58.4 | inactive |
| CYB5R4 | 2 | -0.296 | 98.4 | inactive |
| CYB5R4 | 3 | -0.22 | 118 | inactive |
| CYB5R4 | 4 | -0.267 | 84.5 | inactive |
| HCAR2 | 1 | 0.433 | 62.7 | inactive |
| HCAR2 | 2 | -0.0322 | 95.4 | inactive |
| HCAR2 | 3 | -0.0724 | 30.5 | inactive |
| HCAR2 | 4 | 0.186 | 54.6 | inactive |
